Measured values from paper PMC6303327.
The exact form of at least one protein or probe is not confirmed.

Chains of the proteins cited; added tags and fusions are not shown. A line that says so, or that is headed by a name, gives the form on record, which may keep a tag or linker.
ScRPA S178D (phosphomimetic) (Saccharomyces cerevisiae), one chain, as listed by the source S178D, chain 1 of 3: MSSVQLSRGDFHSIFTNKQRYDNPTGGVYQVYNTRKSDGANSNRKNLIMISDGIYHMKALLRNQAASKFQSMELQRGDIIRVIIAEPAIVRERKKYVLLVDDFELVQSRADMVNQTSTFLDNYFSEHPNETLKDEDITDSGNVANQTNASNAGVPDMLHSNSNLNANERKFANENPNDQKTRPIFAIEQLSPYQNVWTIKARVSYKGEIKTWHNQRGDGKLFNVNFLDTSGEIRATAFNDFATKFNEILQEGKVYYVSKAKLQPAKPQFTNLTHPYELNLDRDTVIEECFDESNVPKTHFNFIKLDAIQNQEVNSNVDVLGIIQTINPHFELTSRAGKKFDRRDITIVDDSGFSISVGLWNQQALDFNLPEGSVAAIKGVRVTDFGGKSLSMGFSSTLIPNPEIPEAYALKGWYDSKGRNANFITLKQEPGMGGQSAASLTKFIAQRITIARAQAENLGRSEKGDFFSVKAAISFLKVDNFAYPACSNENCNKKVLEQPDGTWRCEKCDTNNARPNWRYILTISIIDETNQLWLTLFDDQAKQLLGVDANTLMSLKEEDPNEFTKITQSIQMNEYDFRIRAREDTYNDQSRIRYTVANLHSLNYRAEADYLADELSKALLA

Tested on: ScRPA S178D (phosphomimetic) (Saccharomyces cerevisiae)
Assay: FRET titration
Conditions: FRET: reaction buffer not given, 10 nM DNA, recombinant protein, protein details: TEV-cleavable His6 on Rfa1, single-stranded DNA

Sequence: TTTTTTTTTTTTTTTTTTTTTTTTTTTTTTTTTTTTTTTTTTTTTTTTTTTTTTTTTTTTTTTTTTTTTTTTTTTTTTTTTTTTTTTTTT [dT90(1-30)]
- Kd (Hill n 1.6 ± 0.2, substrate assigned from figure text order, internal Cy3 in backbone, label: 5' Cy5, Cy3 after nt 29): 78.6 nM

Sequence: TTTTTTTTTTTTTTTTTTTTTTTTTTTTTTTTTTTTTTTTTTTTTTTTTTTTTTTTTTTTTTTTTTTTTTTTTTTTTTTTTTTTTTTTTT [dT90(5-35)]
- Kd (Hill n 1.6 ± 0.2, substrate assigned from figure text order, internal dyes in backbone, label: Cy5 after nt 4, Cy3 30 nt downstream): 58.3 nM

Sequence: TTTTTTTTTTTTTTTTTTTTTTTTTTTTTTTTTTTTTTTTTTTTTTTTTTTTTTTTTTTTTTTTTTTTTTTTTTTTTTTTTTTTTTTTTT [dT90(11-41)]
- Kd (Hill n 2.1 ± 0.2, substrate assigned from figure text order, internal dyes in backbone, label: Cy5 after nt 10, Cy3 30 nt downstream): 65.5 nM
